{"sequences": {"note": "By UniProt entry, the sequences of proteins in these tests, tags left out. Where a name states a change or a piece, a line headed by the entry shows the natural chain unless it says otherwise. Chains listed by the source or under a name are the forms on record and can include a tag or linker.", "UniProt Q12905": "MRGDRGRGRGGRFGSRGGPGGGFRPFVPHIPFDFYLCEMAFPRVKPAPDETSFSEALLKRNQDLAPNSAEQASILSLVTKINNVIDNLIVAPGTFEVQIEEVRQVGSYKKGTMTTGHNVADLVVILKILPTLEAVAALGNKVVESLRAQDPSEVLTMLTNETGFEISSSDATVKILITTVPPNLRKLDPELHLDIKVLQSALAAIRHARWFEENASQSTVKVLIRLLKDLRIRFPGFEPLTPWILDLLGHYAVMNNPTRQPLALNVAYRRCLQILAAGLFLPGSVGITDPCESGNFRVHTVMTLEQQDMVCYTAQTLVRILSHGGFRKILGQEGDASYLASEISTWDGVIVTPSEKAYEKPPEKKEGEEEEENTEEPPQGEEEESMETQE", "purified protein CREB (Abnova #H00001385-P01) (P16220-1, form named)": "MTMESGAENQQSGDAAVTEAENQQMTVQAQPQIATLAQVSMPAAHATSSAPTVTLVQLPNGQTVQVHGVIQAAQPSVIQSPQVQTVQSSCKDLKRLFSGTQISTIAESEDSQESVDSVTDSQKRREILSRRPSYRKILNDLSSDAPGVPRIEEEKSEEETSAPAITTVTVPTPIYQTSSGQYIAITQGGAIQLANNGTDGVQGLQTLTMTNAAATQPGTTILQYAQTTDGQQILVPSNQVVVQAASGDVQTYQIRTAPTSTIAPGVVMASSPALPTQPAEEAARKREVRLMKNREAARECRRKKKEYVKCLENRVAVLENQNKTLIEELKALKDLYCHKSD"}, "source": "paper PMC6387701", "key": {"[1]": {"target": "human ILF2-FLAG (lentiviral-based expression plasmid) (human) (UniProt Q12905)", "assay": "co-IP; HA-tagged CREB constructs and ILF2-FLAG transfected into Bel-7402 cells; lysates immunoprecipitated with anti-HA or anti-FLAG antibodies, western blot"}, "[2]": {"target": "Interleukin enhancer binding factor 2 (ILF2), endogenous (human (endogenous in Bel-7402 and SMMC-7721)) (UniProt Q12905)", "assay": "co-IP; endogenous proteins; Bel-7402 and SMMC-7721 lysates, IP with anti-CREB or anti-ILF2 antibodies and protein A/G-Sepharose overnight at 4°C, western blot; IgG as negative control"}, "[3]": {"target": "hCREB-HA (lentiviral-based expression plasmid) (human) (UniProt P16220)", "assay": "co-IP; HA-tagged CREB constructs and ILF2-FLAG transfected into Bel-7402 cells; lysates immunoprecipitated with anti-HA or anti-FLAG antibodies, western blot"}, "[4]": {"target": "WT-CREB (pcDNA3.1(+), HA-tagged) (human) (UniProt P16220)", "assay": "co-IP; HA-tagged CREB constructs and ILF2-FLAG transfected into Bel-7402 cells; lysates immunoprecipitated with anti-HA or anti-FLAG antibodies, western blot"}, "[5]": {"target": "Cyclic adenosine monophosphate (cAMP) response element-binding protein (CREB), endogenous (human (endogenous in Bel-7402 and SMMC-7721)) (UniProt P16220)", "assay": "co-IP; endogenous proteins; Bel-7402 and SMMC-7721 lysates, IP with anti-CREB or anti-ILF2 antibodies and protein A/G-Sepharose overnight at 4°C, western blot; IgG as negative control"}, "[6]": {"target": "Cyclic adenosine monophosphate (cAMP) response element-binding protein (CREB), endogenous (human (endogenous in Bel-7402 and SMMC-7721)) (UniProt P16220)", "assay": "proximity ligation; Duolink in situ red kit on cells fixed with 4% PFA; anti-CREB with anti-ILF2 or anti-ILF3; signal when probes are less than 40 nm apart"}, "[7]": {"target": "purified protein CREB (Abnova #H00001385-P01) (human) (UniProt P16220)", "assay": "co-IP; in vitro reciprocal co-IP of purified CREB and ILF2 proteins with anti-CREB or anti-ILF2 antibodies, with DTT, western blot; both purified"}}, "note": "No constants are given. Whether binding was seen depends on the method and setting. For some of these results: In cells and extracts the contact can be indirect. Some results given as binding are weak or reduced against the parent protein; the word gives no strength.", "data": [{"substance": "hCREB-HA (lentiviral-based expression plasmid) (from UniProt P16220-1 1-341)", "values": [{"measurement": "binding", "setting": "[1]", "value": "binds"}]}, {"substance": "Cyclic adenosine monophosphate (cAMP) response element-binding protein (CREB), endogenous (from UniProt P16220-1 1-341)", "values": [{"measurement": "binding", "setting": "[2]", "value": "binds"}]}, {"substance": "human ILF2-FLAG (lentiviral-based expression plasmid) (from UniProt Q12905 1-390)", "values": [{"measurement": "binding", "setting": "[3]", "value": "binds"}, {"measurement": "binding", "setting": "[4]", "value": "binds"}]}, {"substance": "Interleukin enhancer binding factor 2 (ILF2), endogenous (from UniProt Q12905 1-390)", "values": [{"measurement": "binding", "setting": "[5]", "value": "binds"}, {"measurement": "binding", "setting": "[6]", "value": "binds"}]}, {"substance": "purified protein ILF2 (Abnova #H00003608-P01) (from UniProt Q12905 1-390)", "values": [{"measurement": "binding", "setting": "[7]", "value": "binds"}]}]}
